Source: PubChem BioAssay AID1117319 (Southern Research Institute, 2015)
Hit rate of the full screen: of about 260,000 compounds, about 1,500 (0.58%) were called active. This list was built around the results that the source calls inconclusive (neither active nor inactive); the mix of calls is not that of the screen.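 The calls were made as follows: active = inhibition above a set limit at one or more doses, reproduced on every date tested; inconclusive = results disagree between test dates, or hit never tested in dose response; inactive = the rest.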

The chains behind the UniProt entries cited, without tags or fusion partners. Where a name states a change or a piece, a line headed by the entry shows the natural chain unless it says otherwise.
UniProt P69720: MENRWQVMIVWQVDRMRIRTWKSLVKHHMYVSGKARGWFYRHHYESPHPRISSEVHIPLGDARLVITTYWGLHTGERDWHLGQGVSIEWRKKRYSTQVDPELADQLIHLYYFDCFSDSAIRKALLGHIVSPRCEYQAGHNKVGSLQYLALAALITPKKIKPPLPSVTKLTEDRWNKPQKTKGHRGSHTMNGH
UniProt P69721: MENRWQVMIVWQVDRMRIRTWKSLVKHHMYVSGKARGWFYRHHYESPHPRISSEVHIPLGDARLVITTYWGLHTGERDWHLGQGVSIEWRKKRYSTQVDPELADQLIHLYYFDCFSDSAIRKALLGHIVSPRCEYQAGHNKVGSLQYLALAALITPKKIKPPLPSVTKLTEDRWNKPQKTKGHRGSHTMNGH
UniProt P69722: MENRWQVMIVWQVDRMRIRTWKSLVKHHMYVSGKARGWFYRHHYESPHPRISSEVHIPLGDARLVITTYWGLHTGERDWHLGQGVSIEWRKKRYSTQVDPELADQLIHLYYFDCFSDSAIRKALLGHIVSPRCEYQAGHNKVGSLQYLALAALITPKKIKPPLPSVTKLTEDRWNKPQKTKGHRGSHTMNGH
UniProt P69723: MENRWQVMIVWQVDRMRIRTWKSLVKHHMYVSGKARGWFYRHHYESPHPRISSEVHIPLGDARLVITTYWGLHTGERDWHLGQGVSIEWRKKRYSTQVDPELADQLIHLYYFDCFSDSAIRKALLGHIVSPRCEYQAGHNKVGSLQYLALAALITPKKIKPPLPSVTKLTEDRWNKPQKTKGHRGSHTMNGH
UniProt Q9HC16: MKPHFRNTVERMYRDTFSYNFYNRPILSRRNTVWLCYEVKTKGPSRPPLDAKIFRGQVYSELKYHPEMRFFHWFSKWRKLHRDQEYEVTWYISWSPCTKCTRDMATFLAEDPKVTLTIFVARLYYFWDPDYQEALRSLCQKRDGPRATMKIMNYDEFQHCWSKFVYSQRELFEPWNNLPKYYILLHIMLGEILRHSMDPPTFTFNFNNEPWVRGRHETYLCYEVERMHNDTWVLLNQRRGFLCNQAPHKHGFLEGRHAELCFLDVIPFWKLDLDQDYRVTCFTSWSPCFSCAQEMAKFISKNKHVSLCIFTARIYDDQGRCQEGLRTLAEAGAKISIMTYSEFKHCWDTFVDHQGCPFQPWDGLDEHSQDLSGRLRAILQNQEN

The molecules below were run against Virion infectivity factor (Human immunodeficiency virus type 1 group M subtype B (isolate BH10)) + Virion infectivity factor (Human immunodeficiency virus type 1 group M subtype B (isolate BRU/LAI)) + Virion infectivity factor (Human immunodeficiency virus type 1 group M subtype B (isolate PCV12)) + Virion infectivity factor (Human immunodeficiency virus type 1 group M subtype B (isolate HXB2)) + DNA dC->dU-editing enzyme APOBEC-3G (Homo sapiens) (UniProt P69720+P69721+P69722+P69723+Q9HC16) (assay: inhibitors of Vif binding to APOBEC3G peptide, primary screen, biochemical, TR-FRET, GST-Vif 1-94, biotin-A3G peptide, dose response retest (AID 1117319;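 also: Vif residues 1-94 fused to GST binding biotinylated APOBEC3G peptide 110-148; 0% = full assay without inhibitor and 100% = GST in place of GST-Vif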)). Conditions: active compounds read high.
In the case of `Cc1ccc2c(CC(=O)NCC3COc4ccccc4O3)coc2c1` (configuration not stated), the inhibition is reported as inconclusive: 56.7%.
With `Cc1nn(-c2cc(N3CCCCC3)ccc2N)c(=O)c2ccccc12` the inhibition was inconclusive: 52.8%.
In the case of `O=C(c1ccc(F)cc1)N1CCN(c2ccc(N3CCOCC3)nn2)CC1`, the inhibition is reported as inconclusive: 37.5%.
With `Cc1ccc(/C=c2\sc3nc(-c4cccnc4)nn3c2=O)cc1` the inhibition was inactive: 8.43%.
`CC1Cc2ccccc2N1C(=O)CNc1cccc(S(=O)(=O)N2CCCC2)c1` (configuration not stated) was tested, and the inhibition was inconclusive: 35%.
In the case of `Cc1ccc2cc(CN(CC3CCCO3)C(=S)NCc3ccco3)c(=O)[nH]c2c1C` (configuration not stated), the inhibition is reported as inconclusive: 34.5%.
`Cc1ccc2c(c1)c1c3n2CC(=C2C(=O)OC(C)(C)OC2=O)NC3CCC1` (configuration not stated) was tested, and the inhibition was inconclusive: 37.9%.
In the case of `CCc1ccc2[nH]c(=O)c(C(c3nnnn3Cc3ccco3)N3CCC(C)CC3)cc2c1` (configuration not stated), the inhibition is reported as inconclusive: 50.1%.
`O=C(NCc1ccccn1)Nc1ccc(Cl)c(Cl)c1` was tested, and the inhibition was inconclusive: 36.3%.
For `C=CCSc1nnc(NC(=O)CSc2nc3ccccc3o2)s1`, the inhibition was inconclusive: 40%.
In the case of `Cc1ccc(C)c(S(=O)(=O)Nc2ccc(O)c(C(=O)O)c2)c1`, the inhibition is reported as inconclusive: 40.6%.
With `O=C1OC(Nc2ccc3c(c2)OCO3)c2ccccc21` (configuration not stated) the inhibition was inconclusive: 38.7%.
In the case of `CC(=O)OCCCNc1cc(Sc2ccc(Cl)cc2)c2nonc2c1[N+](=O)[O-]`, the inhibition is reported as inconclusive: 49.1%.
`COC(=O)c1cc(C(=O)NCCN2C(=O)S/C(=C\c3cccs3)C2=O)cc([N+](=O)[O-])c1` was tested, and the inhibition was inconclusive: 40.6%.
In the case of `Cc1ccc(-n2nnnc2Sc2ccc(S(=O)(=O)NCCN(C)C)cc2[N+](=O)[O-])cc1`, the inhibition is reported as inconclusive: 44.7%.
For `Cc1nc(N)sc1-c1csc(Nc2ccc(Cl)cn2)n1`, the inhibition was inconclusive: 37.7%.
In the case of `CCOC(=O)c1c(C)[nH]c(N=Nc2ccccc2)c1C`, the inhibition is reported as inconclusive: 50.2%.
With `CSc1ccc(C2CC(=O)Nc3c2c(=O)n(C)c(=O)n3C)cc1` (configuration not stated) the inhibition was inconclusive: 45.2%.
In the case of `COc1ccc(Nc2cc(=O)oc3ccccc23)cc1`, the inhibition is reported as inconclusive: 45.4%.
`N#CCC(=O)N1CC2(CC(c3cccc(NC(=O)COc4ccc(Cl)cc4)c3)=NO2)C[C@@H]1C(N)=O` (some centres not stated) was tested, and the inhibition was inconclusive: 48.4%.
In the case of `CC(=O)c1ccc(NC(=O)c2noc(C(C)C)c2[N+](=O)[O-])cc1`, the inhibition is reported as inconclusive: 49.1%.
For `CN1CCc2c(sc(/N=C/c3cccs3)c2C(N)=O)C1`, the inhibition was inconclusive: 37.7%.
`Cc1nc2ccc(NC(=O)c3cccc(C(F)(F)F)c3)cc2o1` was tested, and the inhibition was inconclusive: 59.7%.
In the case of `C/C(=N\N=C\c1ccc(N(C)C)cc1)c1cccc([N+](=O)[O-])c1`, the inhibition is reported as inconclusive: 46.5%.
With `CC(C)CN(C(=O)CN1CCN(c2ccc([N+](=O)[O-])cc2)CC1)c1c(N)n(CC(C)C)c(=O)[nH]c1=O` the inhibition was inactive: 13.2%.
In the case of `C=CCN=C1SC(CC)C(=O)N1S(=O)(=O)c1ccc(C)cc1` (configuration not stated), the inhibition is reported as inconclusive: 44.7%.
`COc1ccc([C@@H]2C[C@H]3CN(c4ccccc4)C(=O)[C@]34CCCN24)c(OC)c1OC` was tested, and the inhibition was inconclusive: 34.8%.
In the case of `Fc1cccc(-n2ncc(-c3nnnn3-c3ccccc3)c2C(F)(F)F)c1`, the inhibition is reported as inconclusive: 37.4%.
For `CCC1(C)N(O)C(C)(C)C(c2ccc(OC)cc2)=[N+]1[O-]` (configuration not stated), the inhibition was inconclusive: 33.4%.
`CCOc1ccc(-n2c(C)cc(C(=O)CCl)c2C)cc1` was tested, and the inhibition was inconclusive: 40.2%.
For `Cc1sc2nc3ccc(NCc4ccco4)nn3c(=O)c2c1C`, the inhibition was inconclusive: 47.4%.
In the case of `COCC(=O)Nc1ccc(C)c(Cl)c1`, the inhibition is reported as inconclusive: 54.9%.
`N#CC1=C(N)Oc2c(ccc3cccnc23)C1c1cccnc1` (configuration not stated) was tested, and the inhibition was inconclusive: 40%.
With `COc1ccc(C(C(=O)NC2CCCCC2)N(Cc2cccs2)C(=O)Cc2c[nH]c3ccccc23)cc1` (configuration not stated) the inhibition was inconclusive: 37.9%.
`CC(C)CC(=O)N1CCN(C(=O)c2cccc(F)c2)CC1` was tested, and the inhibition was inactive: -7.36%.
`C=C(C)C(=O)Nc1cccc(C2=NOC3(C2)C[C@@H](C(N)=O)N(C(=O)c2ccc(OC)cc2)C3)c1` (some centres not stated) was tested, and the inhibition was inconclusive: 39.5%.
With `CCSc1nc2c(c(=O)[nH]c(=O)n2C)n1CC(O)COc1ccccc1C` (configuration not stated) the inhibition was inconclusive: 34.5%.
For `CCCC(C(=O)NC1CCCC1)N(C(=O)Cn1nnc(-c2ccc(C)o2)n1)c1ccccc1OC` (configuration not stated), the inhibition was inconclusive: 46.3%.
`COc1ccc(CCNC(=O)CC2C(=O)NCCN2CC(C)(C)C)cc1` (configuration not stated) was tested, and the inhibition was inconclusive: 51.3%.
`Cc1cc(N/N=C/c2ccc(N(C)C)cc2)nc(NCc2ccccc2)n1` was tested, and the inhibition was inactive: 7.69%.
For `CC(C)CNC(=O)COC(=O)CCC(=O)c1ccc(Cl)cc1`, the inhibition was inconclusive: 56.7%.
With `COc1cc2cc(CN(Cc3nnnn3Cc3ccco3)C3CCCCC3)c(=O)[nH]c2cc1OC` the inhibition was inconclusive: 61.5%.
In the case of `COc1ccc(-n2c(C)cc(C(=O)CCl)c2C)cc1`, the inhibition is reported as inconclusive: 54.2%.
For `COc1ccc(OCC(O)CN2CCN(Cc3ccc4c(c3)OCO4)CC2)cc1` (configuration not stated), the inhibition was inconclusive: 35.3%.
`NCCc1nnc(SCc2ccc(F)cc2)o1` was tested, and the inhibition was inconclusive: 45.2%.
With `CCOCCCNc1nc(C)nc2c1nnn2Cc1c(F)cccc1Cl` the inhibition was inconclusive: 60.5%.
For `Cc1ccc(NS(=O)(=O)c2ccc(CCC(=O)NCc3cccnc3)cc2)cc1`, the inhibition was inconclusive: 64.3%.
`Cc1cc(N2CCCCC2)nc2ccc(NC(=O)c3ccc(Br)o3)cc12` was tested, and the inhibition was inconclusive: 62.7%.
For `O=C(CSc1ccsc1[N+](=O)[O-])Nc1cccc(F)c1`, the inhibition was inconclusive: 38%.
`Cc1cc(C)c2cc(C(=O)Nc3ccc4c(c3)OCO4)[nH]c2c1` was tested, and the inhibition was inconclusive: 58%.
In the case of `COc1ccc(CCNC(=O)C2CCCN(C(=O)N(C)C)C2)c(OC)c1` (configuration not stated), the inhibition is reported as inconclusive: 62.7%.
For `CN(c1ccccc1)P(=O)(N(C)c1ccccc1)N(C)c1ccccc1`, the inhibition was inactive: -2.89%.
For `COC(=O)C1=C(O)/C(=C\c2cc(C)n(-c3ccc(F)cc3)c2C)N=C1C`, the inhibition was inconclusive: 42.9%.
In the case of `NC(=O)Nn1c(CCC(=O)O)ccc1-c1ccc(Cl)cc1`, the inhibition is reported as inactive: 3.68%.
`COC(=O)N/N=C/c1ccc(OC(=O)/C=C/c2ccco2)cc1` was tested, and the inhibition was inconclusive: 62.2%.
In the case of `O=c1[nH]cc(N(CCO)CCO)c(=O)[nH]1`, the inhibition is reported as inconclusive: 53.9%.
`CC(=O)Nc1cccc(CP(=O)(c2ccccc2)c2ccccc2)c1` was tested, and the inhibition was inconclusive: 34%.
In the case of `CCCN1C(=O)c2cc(C(=O)NCc3ccc(OC)cc3)ccc2C1O` (configuration not stated), the inhibition is reported as inconclusive: 21.8%.
With `Cc1n[nH]c(=O)n1-c1ccc(C(C)C)cc1` the inhibition was inactive: -7.48%.
With `CN1CCN(CCC(=O)N2c3ccccc3Sc3ccc(Cl)cc32)CC1` the inhibition was inconclusive: 34%.
For `CCOC(=O)c1c(OCC)[nH]c2c1cc(O)c1ccccc12`, the inhibition was inconclusive: 21.3%.
In the case of `O=c1cc(CO)oc(C(Nc2cccc([N+](=O)[O-])c2)c2ccccn2)c1O` (configuration not stated), the inhibition is reported as inconclusive: 39.9%.
For `CCc1ccccc1OCc1nnc(N)s1`, the inhibition was inconclusive: 54.8%.
With `Cc1ccc(NC(=O)c2cccc(NC(=O)/C=C/c3ccco3)c2)cc1C` the inhibition was inconclusive: 39.9%.
In the case of `CCOC(=O)c1cnc2c(Cl)cccc2c1NCCN1CCOCC1`, the inhibition is reported as inconclusive: 42.3%.
`Cn1c(=O)c2c(nc(NCC(O)CO)n2CCc2ccccc2)n(C)c1=O` (configuration not stated) was tested, and the inhibition was inconclusive: 40.3%.
For `O=C(Nc1ccc(F)cc1)c1ccc(COc2ccccc2)cc1`, the inhibition was inconclusive: 33.8%.
`CCCC1=C(C(=O)OCC)C(c2c(C)nn(-c3ccccc3)c2Cl)C(C#N)=C(N)O1` (configuration not stated) was tested, and the inhibition was inconclusive: 46.5%.
For `CCCS(=O)(=O)n1nc(-c2ccc(Br)cc2)cc1N`, the inhibition was inconclusive: 49.4%.
In the case of `COc1ccc(Cc2nnc(NS(C)(=O)=O)s2)cc1`, the inhibition is reported as inconclusive: 57%.
For `Cc1noc(NS(=O)(=O)c2ccc(N/C=C/C(=O)c3cccnc3)cc2)c1C`, the inhibition was inconclusive: 40%.
`COCCn1nnnc1C(C(C)C)N(Cc1cccnc1)Cc1ccccc1Cl` (configuration not stated) was tested, and the inhibition was inconclusive: 37.3%.
In the case of `CC(C)C(NC(=O)C1CCCCC1)C(=O)Nc1ccc2c(c1)OCCO2` (configuration not stated), the inhibition is reported as inconclusive: 37.9%.
In the case of `O=C(COc1ccccc1)Nc1ccccc1NS(=O)(=O)c1cccs1`, the inhibition is reported as inconclusive: 40%.
In the case of `Cc1ccc(CC2CC(=O)N(c3nc4ccccc4n3C)C2=O)cc1` (configuration not stated), the inhibition is reported as inconclusive: 37.6%.
In the case of `CCOC(=O)C1C(c2ccc(C)o2)NC(=O)NC1(O)C(F)(F)F` (configuration not stated), the inhibition is reported as inconclusive: 36.3%.
In the case of `c1ccc(Cc2noc(CN3CCN(Cc4ccc5c(c4)OCO5)CC3)n2)cc1`, the inhibition is reported as inconclusive: 53%.
`CCOc1ccc(S(=O)(=O)/N=C(\N)c2ccccc2)cc1` was tested, and the inhibition was inconclusive: 35.1%.
For `COC(=O)[C@@]1(Cc2ccc(OC)cc2)[C@@H]2[C@@H](CC(=O)[C@H]2CC(=O)C(=O)N(C)C)CN1C(=O)c1ccccc1`, the inhibition was inconclusive: 50.6%.
With `COc1cc2c3c(c1OC)C1(C=CC(=O)C=C1)CC3N(C(=O)c1ccccc1)CC2` (configuration not stated) the inhibition was inactive: 16.3%.
In the case of `COc1ccc(C2(O)CN(c3ccc(C)cc3)C3=[N+]2CCCC3)cc1` (configuration not stated), the inhibition is reported as inconclusive: 58.4%.
`CCc1nnc(NC(=O)c2ccc(S(=O)(=O)N(CC)Cc3ccccc3)cc2)o1` was tested, and the inhibition was inconclusive: 39.8%.
For `CC(C)(C)C(=O)NC(=S)NNC(=O)c1sc2ccccc2c1Cl`, the inhibition was inconclusive: 43.1%.
With `COc1ccc(C(=O)C[n+]2ccc3c(c2)nc(-c2ccccc2)n3C)cc1` the inhibition was inconclusive: 48.5%.
With `COC(=O)c1ccc(NC(=O)CSc2nnc(COc3ccc4c(c3)CCCC4)o2)cc1` the inhibition was inconclusive: -0.67%.
`COc1ccc(NC(=O)c2ccc(F)cc2)cc1S(=O)(=O)Nc1cc(C)ccc1Br` was tested, and the inhibition was inconclusive: 40.9%.
With `Cc1ccc(NC2CC(=O)N(c3ccc(N4CCCCC4)cc3)C2=O)cc1` (configuration not stated) the inhibition was inactive: 25.5%.
